2 molecules from article PMC11988436 can be followed below.

Chains of the proteins cited; added tags and fusions are not shown.
UniProt Q6R891: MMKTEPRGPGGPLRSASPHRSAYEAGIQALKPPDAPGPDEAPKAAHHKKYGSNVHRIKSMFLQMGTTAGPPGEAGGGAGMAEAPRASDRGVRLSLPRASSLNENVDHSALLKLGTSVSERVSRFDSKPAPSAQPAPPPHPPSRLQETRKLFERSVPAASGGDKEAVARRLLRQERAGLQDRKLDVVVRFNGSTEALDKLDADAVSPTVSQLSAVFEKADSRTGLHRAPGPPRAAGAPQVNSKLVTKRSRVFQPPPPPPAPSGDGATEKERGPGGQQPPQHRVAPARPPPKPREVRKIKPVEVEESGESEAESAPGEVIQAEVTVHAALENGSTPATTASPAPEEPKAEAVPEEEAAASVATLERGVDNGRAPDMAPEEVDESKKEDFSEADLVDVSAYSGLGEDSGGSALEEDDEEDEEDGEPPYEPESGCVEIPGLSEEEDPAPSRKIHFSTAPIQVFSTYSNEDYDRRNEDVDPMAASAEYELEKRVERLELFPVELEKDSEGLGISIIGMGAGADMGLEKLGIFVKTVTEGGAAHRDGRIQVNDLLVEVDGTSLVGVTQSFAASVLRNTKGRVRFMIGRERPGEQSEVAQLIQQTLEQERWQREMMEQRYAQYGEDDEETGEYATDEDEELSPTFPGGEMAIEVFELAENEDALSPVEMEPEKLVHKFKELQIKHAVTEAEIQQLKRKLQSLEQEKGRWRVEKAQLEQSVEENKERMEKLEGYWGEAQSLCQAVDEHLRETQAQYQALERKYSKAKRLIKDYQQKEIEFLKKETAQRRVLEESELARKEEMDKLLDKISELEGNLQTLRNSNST

Results are given in words; binding and its absence hold for the method and conditions named. In cells and extracts the contact can be indirect. Some entries that bind do so weakly or less than the wild type.

Test [1] concerns the target T1, E3 ubiquitin ligase PRAJA1 (mouse (endogenous in hippocampal CA1 tissue)) (UniProt O55176).
T1 sequence: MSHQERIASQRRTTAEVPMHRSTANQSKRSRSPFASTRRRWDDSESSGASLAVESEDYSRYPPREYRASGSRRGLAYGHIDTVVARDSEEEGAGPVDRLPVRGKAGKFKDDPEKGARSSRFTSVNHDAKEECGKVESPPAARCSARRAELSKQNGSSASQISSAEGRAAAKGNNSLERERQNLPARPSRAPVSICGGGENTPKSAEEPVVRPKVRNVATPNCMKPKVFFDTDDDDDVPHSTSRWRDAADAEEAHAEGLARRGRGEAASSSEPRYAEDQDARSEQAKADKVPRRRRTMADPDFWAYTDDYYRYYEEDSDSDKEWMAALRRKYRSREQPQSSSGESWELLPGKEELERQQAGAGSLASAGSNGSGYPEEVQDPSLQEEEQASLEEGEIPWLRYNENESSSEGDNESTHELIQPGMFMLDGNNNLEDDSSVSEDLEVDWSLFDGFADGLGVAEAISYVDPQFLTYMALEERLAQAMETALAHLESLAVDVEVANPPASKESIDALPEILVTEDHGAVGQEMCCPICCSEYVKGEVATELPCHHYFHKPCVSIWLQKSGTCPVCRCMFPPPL
As to the kind of experiment: co-IP; mouse hippocampal CA1 tissue lysed in RIPA buffer with protease inhibitors, precleared with control agarose resin; antibody (PRAJA1, IgG control; by the legend also spinophilin) immobilised on resin, incubated with lysate overnight; Western blot. (In general: In western blotting, separated proteins are transferred to a membrane and probed.)

Test [2] has as its target spinophilin (neurabin 2) (mouse (endogenous in hippocampal CA1 tissue)) (UniProt Q6R891). The description is as above.

For the molecule “spinophilin (neurabin 2) (from UniProt Q6R891 1-817)”, the binding entry in test [1] was “binds”.

B1: E3 ubiquitin ligase PRAJA1 (protein, UniProt O55176 1-578)
chain: MSHQERIASQRRTTAEVPMHRSTANQSKRSRSPFASTRRRWDDSESSGASLAVESEDYSRYPPREYRASGSRRGLAYGHIDTVVARDSEEEGAGPVDRLPVRGKAGKFKDDPEKGARSSRFTSVNHDAKEECGKVESPPAARCSARRAELSKQNGSSASQISSAEGRAAAKGNNSLERERQNLPARPSRAPVSICGGGENTPKSAEEPVVRPKVRNVATPNCMKPKVFFDTDDDDDVPHSTSRWRDAADAEEAHAEGLARRGRGEAASSSEPRYAEDQDARSEQAKADKVPRRRRTMADPDFWAYTDDYYRYYEEDSDSDKEWMAALRRKYRSREQPQSSSGESWELLPGKEELERQQAGAGSLASAGSNGSGYPEEVQDPSLQEEEQASLEEGEIPWLRYNENESSSEGDNESTHELIQPGMFMLDGNNNLEDDSSVSEDLEVDWSLFDGFADGLGVAEAISYVDPQFLTYMALEERLAQAMETALAHLESLAVDVEVANPPASKESIDALPEILVTEDHGAVGQEMCCPICCSEYVKGEVATELPCHHYFHKPCVSIWLQKSGTCPVCRCMFPPPL
As for B1, the binding result in test [2] is on record as “binds”.
